Values quoted from earlier work, collected in patent publication US20250064843A1, “METHOD AND MEDICAMENT FOR TREATING AMYOTROPHIC LATERAL SCLEROSIS” (4B TECHNOLOGIES (BEIJING) CO., LIMITED, priority 2021, published 2025).
For at least one compound, name, drawing or mass did not settle the structure.

Tested on: ALS patients
Details: NR3C1 agonists

For `C[C@H]1C[C@@H]2[C@H]([C@@H](O)C[C@@]3(C)[C@H]2CC[C@]3(O)C(=O)CO)[C@@]2(C)C=CC(=O)C=C12` [methylprednisolone], the “response to immunosuppression therapy” value is given as “none of the patients reached the pre-defined responder criteria”.
